Measured values reported in publication PMC8721997.
Results are given in words; binding and its absence hold for the method and conditions named. Binding seen in cells or lysates may run through a third protein. Some entries that bind do so weakly or less than the wild type. Where a sequence is shown, tags or fusion partners need not be part of it.

Sequences of proteins named here, by UniProt entry; tags and fusion partners are left off.
UniProt O95180: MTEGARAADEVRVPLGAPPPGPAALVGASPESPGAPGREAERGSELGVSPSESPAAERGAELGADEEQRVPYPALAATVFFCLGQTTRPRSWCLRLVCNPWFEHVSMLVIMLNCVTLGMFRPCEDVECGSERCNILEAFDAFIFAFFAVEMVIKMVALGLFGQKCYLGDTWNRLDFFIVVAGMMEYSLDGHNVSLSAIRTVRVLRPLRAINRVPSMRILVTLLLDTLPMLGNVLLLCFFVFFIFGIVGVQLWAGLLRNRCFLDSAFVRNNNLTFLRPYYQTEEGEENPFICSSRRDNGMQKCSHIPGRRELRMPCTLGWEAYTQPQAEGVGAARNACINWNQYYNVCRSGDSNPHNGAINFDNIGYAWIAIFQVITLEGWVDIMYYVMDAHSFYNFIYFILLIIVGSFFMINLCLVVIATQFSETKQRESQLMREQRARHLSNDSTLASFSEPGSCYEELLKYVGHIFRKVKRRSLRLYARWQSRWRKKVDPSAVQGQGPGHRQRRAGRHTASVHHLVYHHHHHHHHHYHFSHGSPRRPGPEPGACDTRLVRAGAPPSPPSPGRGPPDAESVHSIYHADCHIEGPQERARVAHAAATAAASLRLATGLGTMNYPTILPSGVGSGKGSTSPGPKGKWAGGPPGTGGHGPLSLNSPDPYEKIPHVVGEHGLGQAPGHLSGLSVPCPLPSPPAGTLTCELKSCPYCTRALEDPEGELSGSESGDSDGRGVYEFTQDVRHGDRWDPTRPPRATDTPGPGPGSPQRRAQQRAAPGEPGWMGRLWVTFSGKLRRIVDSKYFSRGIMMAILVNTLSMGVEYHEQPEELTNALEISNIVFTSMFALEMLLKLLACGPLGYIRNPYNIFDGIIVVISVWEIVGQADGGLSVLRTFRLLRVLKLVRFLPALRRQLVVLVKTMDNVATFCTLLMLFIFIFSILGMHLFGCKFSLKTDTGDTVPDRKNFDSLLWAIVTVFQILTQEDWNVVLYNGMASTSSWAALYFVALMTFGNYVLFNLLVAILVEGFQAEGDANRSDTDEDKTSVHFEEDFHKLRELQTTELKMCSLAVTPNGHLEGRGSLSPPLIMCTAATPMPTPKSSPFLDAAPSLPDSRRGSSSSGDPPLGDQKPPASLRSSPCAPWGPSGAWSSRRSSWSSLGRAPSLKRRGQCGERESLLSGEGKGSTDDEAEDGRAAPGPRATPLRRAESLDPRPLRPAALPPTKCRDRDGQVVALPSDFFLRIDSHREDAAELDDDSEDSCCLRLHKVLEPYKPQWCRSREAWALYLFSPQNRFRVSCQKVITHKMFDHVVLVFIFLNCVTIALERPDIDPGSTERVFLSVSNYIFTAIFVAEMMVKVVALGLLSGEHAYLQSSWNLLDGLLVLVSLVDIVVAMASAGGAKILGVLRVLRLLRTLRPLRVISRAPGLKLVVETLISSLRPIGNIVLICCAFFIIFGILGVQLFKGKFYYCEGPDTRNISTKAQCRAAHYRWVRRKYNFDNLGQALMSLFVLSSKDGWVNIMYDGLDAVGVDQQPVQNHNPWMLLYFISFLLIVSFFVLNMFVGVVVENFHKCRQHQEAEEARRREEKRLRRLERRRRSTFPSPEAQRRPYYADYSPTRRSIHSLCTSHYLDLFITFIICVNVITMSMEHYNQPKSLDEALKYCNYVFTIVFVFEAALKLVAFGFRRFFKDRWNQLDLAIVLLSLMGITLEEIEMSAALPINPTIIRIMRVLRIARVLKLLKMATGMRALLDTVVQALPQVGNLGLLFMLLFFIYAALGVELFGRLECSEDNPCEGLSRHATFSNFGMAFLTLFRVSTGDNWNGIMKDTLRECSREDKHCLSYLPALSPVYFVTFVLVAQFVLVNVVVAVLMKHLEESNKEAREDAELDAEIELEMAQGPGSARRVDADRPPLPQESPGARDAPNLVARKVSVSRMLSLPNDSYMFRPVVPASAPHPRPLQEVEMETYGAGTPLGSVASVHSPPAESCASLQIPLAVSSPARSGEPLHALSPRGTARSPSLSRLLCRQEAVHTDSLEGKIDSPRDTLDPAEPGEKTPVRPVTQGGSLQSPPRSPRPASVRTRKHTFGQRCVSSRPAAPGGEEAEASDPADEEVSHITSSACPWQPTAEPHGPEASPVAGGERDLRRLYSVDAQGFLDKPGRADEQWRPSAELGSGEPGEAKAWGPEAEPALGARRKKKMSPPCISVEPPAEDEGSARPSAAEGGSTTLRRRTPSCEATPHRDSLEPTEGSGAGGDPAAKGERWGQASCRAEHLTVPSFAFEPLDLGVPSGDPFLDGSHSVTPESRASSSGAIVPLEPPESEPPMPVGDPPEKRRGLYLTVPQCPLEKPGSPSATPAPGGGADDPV

Target: HA-tagged Cav3.2 channel (Cav3.2-HA) (UniProt O95180)
Assay: co-IP; anti-HA antibody precipitation from total lysates of tsA-201 cells co-transfected with Cav3.2-HA and SCAMP2-Myc; blot with anti-Myc; performed four times from independent transfections

B1: Myc-tagged secretory carrier-associated membrane protein 2 (SCAMP2-Myc) (protein, UniProt O15127 1-329)
chain: MSAFDTNPFADPVDVNPFQDPSVTQLTNAPQGGLAEFNPFSETNAATTVPVTQLPGSSQPAVLQPSVEPTQPTPQAVVSAAQAGLLRQQEELDRKAAELERKERELQNTVANLHVRQNNWPPLPSWCPVKPCFYQDFSTEIPADYQRICKMLYYLWMLHSVTLFLNLLACLAWFSGNSSKGVDFGLSILWFLIFTPCAFLCWYRPIYKAFRSDNSFSFFVFFFVFFCQIGIYIIQLVGIPGLGDSGWIAALSTLDNHSLAISVIMMVVAGFFTLCAVLSVFLLQRVHSLYRRTGASFQQAQEEFSQGIFSSRTFHRAASSAAQGAFQGN
B1 was tested, and the binding was “binds”.
